Assay results reported in paper PMC11535217.
Results are given in words; binding and its absence hold for the method and conditions named. Binding seen in cells or lysates may run through a third protein. Some results given as binding are weak or reduced against the parent protein; the word gives no strength.

By UniProt entry, the sequences of proteins in these tests, tags left out. Residues count along the entry.
UniProt P22366: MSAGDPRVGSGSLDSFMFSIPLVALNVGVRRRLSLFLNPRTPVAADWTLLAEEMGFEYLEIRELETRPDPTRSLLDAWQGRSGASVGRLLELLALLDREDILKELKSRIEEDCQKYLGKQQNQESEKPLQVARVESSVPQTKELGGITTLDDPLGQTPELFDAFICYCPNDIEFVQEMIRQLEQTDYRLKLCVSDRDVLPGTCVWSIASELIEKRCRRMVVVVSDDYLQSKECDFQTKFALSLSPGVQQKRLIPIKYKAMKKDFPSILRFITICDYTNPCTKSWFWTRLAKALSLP
UniProt Q9QUK6, residues 26-835: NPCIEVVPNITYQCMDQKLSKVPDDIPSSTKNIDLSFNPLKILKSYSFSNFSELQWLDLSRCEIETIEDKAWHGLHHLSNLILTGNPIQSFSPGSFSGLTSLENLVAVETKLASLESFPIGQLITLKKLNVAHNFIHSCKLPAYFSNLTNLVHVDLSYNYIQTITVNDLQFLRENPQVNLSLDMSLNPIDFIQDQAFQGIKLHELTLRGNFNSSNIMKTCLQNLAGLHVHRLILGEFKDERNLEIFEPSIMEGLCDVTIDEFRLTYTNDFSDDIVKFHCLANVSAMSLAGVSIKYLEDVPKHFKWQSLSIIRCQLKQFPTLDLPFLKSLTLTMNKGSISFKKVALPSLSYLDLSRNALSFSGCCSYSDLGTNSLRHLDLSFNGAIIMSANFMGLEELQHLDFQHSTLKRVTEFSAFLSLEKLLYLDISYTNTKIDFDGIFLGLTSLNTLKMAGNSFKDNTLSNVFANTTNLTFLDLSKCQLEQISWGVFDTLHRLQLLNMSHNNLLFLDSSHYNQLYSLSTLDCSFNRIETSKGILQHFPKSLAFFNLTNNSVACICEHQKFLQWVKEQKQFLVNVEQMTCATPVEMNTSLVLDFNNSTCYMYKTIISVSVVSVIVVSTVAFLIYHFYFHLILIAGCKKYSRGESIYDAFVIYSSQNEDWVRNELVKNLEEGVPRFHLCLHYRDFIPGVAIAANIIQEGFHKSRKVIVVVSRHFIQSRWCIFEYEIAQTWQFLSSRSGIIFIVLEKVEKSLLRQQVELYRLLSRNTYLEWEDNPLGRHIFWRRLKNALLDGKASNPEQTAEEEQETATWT

Molecular target: MyD88, endogenous in mouse bone marrow-derived macrophages (mouse (endogenous in bone marrow-derived macrophages)) (UniProt P22366)
Test: co-IP; endogenous proteins in mouse bone marrow-derived macrophages, 1 μM TSA for 12 h then 100 ng/ml LPS for 30 min

TLR4, endogenous in mouse bone marrow-derived macrophages (from UniProt Q9QUK6 26-835) (receptor)
binding: binds
